Results reported in PMC9161444 (Langmuir, 2022).
Where “and” joins values, the source holds several entries; their conditions need not be identical. Identical values can stand only once. For some of these results: HELM strings list residues between dots; [ac] is acetyl, [am] amide, other brackets name non-standard units.

Key:
[1] = Lipid monolayer model, surface pressure change (Langmuir trough); conditions: spread between DPPG and DPPC monolayer interactions
[2] = Selective index and averaged ratios from MIC, EC50 and CAC; conditions: SI = sum of EC50 (HDFa, NIH/3T3, hRBC) / sum of MIC (E. coli, S. aureus, C. albicans)
[3] = general procedure: Fmoc solid-phase peptide synthesis; Rink-amide resin; OXYMA/DIC; conditions: whole synthesis, 220 nm

| Molecule | δ[Δπ] = ΔπDPPG – ΔπDPPC [1] | selective index [2] | final HPLC purity [3] |
| --- | --- | --- | --- |
| CCCCCCCCCCCC[N+](C)(C)C.[Br-] [C12TAB, dodecyltrimethylammonium bromide] | 5 mN/m and 5 ± 4 mN/m | 2.0 ± 0.9 |  |
| CD3(CD2)12CO-KKGGII-NH2 |  |  | > 95% |
| PEPTIDE1{[Myr].K.K.G.G.I.I.[am]}$$$$V2.0 |  |  | > 95% |
